Assay results reported in patent US9073975B2, “Cyclic peptides, their preparation and their use as inhibitors of the platelet adhesion” (SANOFI, priority 2010, dated 2015).
For at least one compound, name, drawing or mass did not settle the structure. Non-standard residues stand in square brackets, D forms with d. Residues, ends and D or L forms follow the SMILES beside them. hSer = N[C@@H](CCO)C(=O)O; Ahp = NCCCCCCC(=O)O; βAla = NCCC(=O)O

By UniProt entry, the sequences of proteins in these tests, tags left out. Residues count along the entry.
UniProt P07359, 17-652: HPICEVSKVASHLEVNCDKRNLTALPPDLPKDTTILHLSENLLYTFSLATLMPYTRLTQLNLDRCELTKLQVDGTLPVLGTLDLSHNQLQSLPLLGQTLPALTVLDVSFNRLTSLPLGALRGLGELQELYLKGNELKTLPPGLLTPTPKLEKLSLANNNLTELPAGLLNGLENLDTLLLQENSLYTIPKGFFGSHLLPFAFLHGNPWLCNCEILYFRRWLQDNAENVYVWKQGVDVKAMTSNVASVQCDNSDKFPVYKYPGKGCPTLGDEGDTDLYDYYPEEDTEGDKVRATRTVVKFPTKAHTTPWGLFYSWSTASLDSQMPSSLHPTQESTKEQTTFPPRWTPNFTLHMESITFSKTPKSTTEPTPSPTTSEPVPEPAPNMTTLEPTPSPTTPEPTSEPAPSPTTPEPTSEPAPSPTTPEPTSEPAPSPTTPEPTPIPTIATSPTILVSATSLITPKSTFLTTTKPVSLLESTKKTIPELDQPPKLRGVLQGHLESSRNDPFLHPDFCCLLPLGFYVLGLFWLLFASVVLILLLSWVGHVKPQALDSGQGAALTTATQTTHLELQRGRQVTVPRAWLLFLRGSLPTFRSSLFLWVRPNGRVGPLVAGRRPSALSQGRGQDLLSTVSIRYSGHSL

Target: T1, recombinant human vWF-A1 domain (Homo sapiens, UniProt P07359)
T1 construct: whole blood drawn from voluntary donors; made in house; host or cells: E. coli (vWF-A1); washed platelets from human donor blood (GPIb, endogenous)
Experiment: Static human platelet adhesion to recombinant human vWF-A1 domain
Type: cell-based
Conditions: washed calcein AM labeled human platelets, static conditions, 1.5 h adhesion; read-out: Activity (IC50 for inhibition of the binding of platelets to vWF A1 domain)
Description: The activity of compounds of the formula I can be shown by procedures known in the art, for example by determining their inhibition of the binding of platelets to vWF A1 domain in an appropriate assay. To this end, assay plates can be coated with vWF-A1 domain. […] Then fluorescence-labeled thrombocytes are added and incubated for 90 minutes. In a complex washing procedure all non-bound thrombocytes are removed and the plates are measured, for example in a laser-based reader Acumen Explorer or a bulk reader like Spectramax. […] To assess the effect of compounds on the interaction of the GPIb complex on platelets with vWF, an assay system was used measuring binding of human platelets to recombinant human vWF-A1 domain under static conditions in the presence and absence of the compounds. […] Platelet rich plasma was carefully removed, transferred to a fresh container and spun down for 15 min at 120 g. Platelet rich plasma was carefully transferred again to fresh containers, PGE1 (0.5 μg/ml, Sigma) was added and the suspension was allowed to rest for 5 min. This was followed by another centrifugation step for 15 min at 360 g. The supernatant was discarded and the cell pellets were carefully resuspended in tyrode buffer (NaCl, 137 mM (Sigma S-3014); KCl, 2.7 mM (Sigma P-9541); NaHCO3,12 mM ([…] 31437); NaH2PO4×2H2O, 0.36 mM (Merck 6345); […] After 5 min of resting the suspension was spun down for 15 min at 300 g. The supernatant was discarded and the pellets were carefully resuspended in TBS buffer (Tris-HCl, 50 mM (Fluka 93371); NaCl, 120 mM (Sigma S-3014); KCl, 2.7 mM (Sigma P-9541); CaCl2, 0.05 mM (Sigma C-3306); MgCl2×6 H2O, 2 mM (Sigma M-2670); […] The platelet count was adjusted to 2×10^5 cells/μl, and the suspensions from individual donors were pooled at this stage. The platelets were allowed to rest for 30 min at room temperature before calcein AM (2.5 μM per 2×10^5 cells/μl (Molecular Probes C-3099)) was added. This was followed by 15 min incubation in the dark. Cells were diluted to 5×10^4 cells/μl and ReoPro (3 μg/ml (Centocor B. V., Leiden, N L)) was added, followed by a 10 min incubation period in the dark before adding the platelets to the assay plates. 96 well plates (Greiner hb, black, clear bottom, F, 655097) were coated with human recombinant vWF-A1 domain (1.5 μg/well, AA 475-706, expressed in E. coli) in Tris buffer (pH 7.4; Tris-HCl, 25 mM; NaCl, 150 mM) and incubated for 1 h at room temperature. After washing the wells 3× with TBS, blocking buffer (TBS with 5% BSA) was added followed by an incubation for 1 h. […] Measurement of fluorescence per well was performed in a SpectraMax M5 reader (Molecular Devices). From the raw data % inhibition and IC50 values were calculated.

SMILES | IC50
CSCC[C@@H]1NC(=O)[C@H](CCCNC(=N)N)NC(=O)[C@H](CCC(=O)O)NC(=O)[C@H](CC(C)C)NC(=O)CCCCCCNC(=O)[C@H](CC(C)C)NC(=O)[C@H](CC(N)=O)NC(=O)[C@H](Cc2c[nH]cn2)NC(=O)[C@H](CC(C)C)NC(=O)[C@H](C)NC1=O [Example 12, Cyclo[Leu-His-Asn-Leu-NH—(CH2)6—CO-Leu-Glu-Arg-Met-Ala]] (cyclo(ALHNL[Ahp]LERM)) | 1000 to 10000 nM
CSCC[C@@H]1NC(=O)[C@H](CCCNC(=N)N)NC(=O)[C@H](CCC(=O)O)NC(=O)[C@H](CO)NC(=O)CCCCCCNC(=O)[C@H](CC(C)C)NC(=O)[C@H](CC(N)=O)NC(=O)[C@H](Cc2c[nH]cn2)NC(=O)[C@H](CC(C)C)NC(=O)[C@H](C)NC1=O [Example 26, Cyclo[Leu-His-Asn-Leu-NH—(CH2)6—CO-Ser-Glu-Arg-Met-Ala]] (cyclo(ALHNL[Ahp]SERM)) | 1000 to 10000 nM
COCC[C@@H]1NC(=O)[C@H](CCCNC(=N)N)NC(=O)[C@H](CCC(=O)O)NC(=O)[C@H]([C@@H](C)O)NC(=O)CCCCCCNC(=O)[C@H](CC(C)C)NC(=O)[C@H](CC(N)=O)NC(=O)[C@H](Cc2c[nH]cn2)NC(=O)[C@H](CC(C)C)NC(=O)[C@H](C)NC1=O [Example 44, Cyclo[Leu-His-Asn-Leu-NH—(CH2)6—CO-Thr-Glu-Arg-Amb-Ala]] (cyclo(ALHNL[Ahp]TER[hSer](Me))) | < 1000 nM
CSCC[C@@H]1NC(=O)[C@H](CCCNC(=N)N)NC(=O)[C@H](CCC(=O)O)NC(=O)[C@H]([C@@H](C)O)NC(=O)[C@H](C)NC(=O)CCNC(=O)[C@H](CC(C)C)NC(=O)[C@H](CC(N)=O)NC(=O)[C@H](Cc2c[nH]cn2)NC(=O)[C@H](CC(C)C)NC(=O)[C@H](C)NC1=O [Example 52, Cyclo[Leu-His-Asn-Leu-NH—(CH2)2—CO-Ala-Thr-Glu-Arg-Met-Ala]] (cyclo(ALHNL[βAla]ATERM)) | 1000 to 10000 nM
